The text below walks through data of article PMC11067147.

By UniProt entry, the sequences of proteins in these tests, tags left out.
UniProt Q7Z406: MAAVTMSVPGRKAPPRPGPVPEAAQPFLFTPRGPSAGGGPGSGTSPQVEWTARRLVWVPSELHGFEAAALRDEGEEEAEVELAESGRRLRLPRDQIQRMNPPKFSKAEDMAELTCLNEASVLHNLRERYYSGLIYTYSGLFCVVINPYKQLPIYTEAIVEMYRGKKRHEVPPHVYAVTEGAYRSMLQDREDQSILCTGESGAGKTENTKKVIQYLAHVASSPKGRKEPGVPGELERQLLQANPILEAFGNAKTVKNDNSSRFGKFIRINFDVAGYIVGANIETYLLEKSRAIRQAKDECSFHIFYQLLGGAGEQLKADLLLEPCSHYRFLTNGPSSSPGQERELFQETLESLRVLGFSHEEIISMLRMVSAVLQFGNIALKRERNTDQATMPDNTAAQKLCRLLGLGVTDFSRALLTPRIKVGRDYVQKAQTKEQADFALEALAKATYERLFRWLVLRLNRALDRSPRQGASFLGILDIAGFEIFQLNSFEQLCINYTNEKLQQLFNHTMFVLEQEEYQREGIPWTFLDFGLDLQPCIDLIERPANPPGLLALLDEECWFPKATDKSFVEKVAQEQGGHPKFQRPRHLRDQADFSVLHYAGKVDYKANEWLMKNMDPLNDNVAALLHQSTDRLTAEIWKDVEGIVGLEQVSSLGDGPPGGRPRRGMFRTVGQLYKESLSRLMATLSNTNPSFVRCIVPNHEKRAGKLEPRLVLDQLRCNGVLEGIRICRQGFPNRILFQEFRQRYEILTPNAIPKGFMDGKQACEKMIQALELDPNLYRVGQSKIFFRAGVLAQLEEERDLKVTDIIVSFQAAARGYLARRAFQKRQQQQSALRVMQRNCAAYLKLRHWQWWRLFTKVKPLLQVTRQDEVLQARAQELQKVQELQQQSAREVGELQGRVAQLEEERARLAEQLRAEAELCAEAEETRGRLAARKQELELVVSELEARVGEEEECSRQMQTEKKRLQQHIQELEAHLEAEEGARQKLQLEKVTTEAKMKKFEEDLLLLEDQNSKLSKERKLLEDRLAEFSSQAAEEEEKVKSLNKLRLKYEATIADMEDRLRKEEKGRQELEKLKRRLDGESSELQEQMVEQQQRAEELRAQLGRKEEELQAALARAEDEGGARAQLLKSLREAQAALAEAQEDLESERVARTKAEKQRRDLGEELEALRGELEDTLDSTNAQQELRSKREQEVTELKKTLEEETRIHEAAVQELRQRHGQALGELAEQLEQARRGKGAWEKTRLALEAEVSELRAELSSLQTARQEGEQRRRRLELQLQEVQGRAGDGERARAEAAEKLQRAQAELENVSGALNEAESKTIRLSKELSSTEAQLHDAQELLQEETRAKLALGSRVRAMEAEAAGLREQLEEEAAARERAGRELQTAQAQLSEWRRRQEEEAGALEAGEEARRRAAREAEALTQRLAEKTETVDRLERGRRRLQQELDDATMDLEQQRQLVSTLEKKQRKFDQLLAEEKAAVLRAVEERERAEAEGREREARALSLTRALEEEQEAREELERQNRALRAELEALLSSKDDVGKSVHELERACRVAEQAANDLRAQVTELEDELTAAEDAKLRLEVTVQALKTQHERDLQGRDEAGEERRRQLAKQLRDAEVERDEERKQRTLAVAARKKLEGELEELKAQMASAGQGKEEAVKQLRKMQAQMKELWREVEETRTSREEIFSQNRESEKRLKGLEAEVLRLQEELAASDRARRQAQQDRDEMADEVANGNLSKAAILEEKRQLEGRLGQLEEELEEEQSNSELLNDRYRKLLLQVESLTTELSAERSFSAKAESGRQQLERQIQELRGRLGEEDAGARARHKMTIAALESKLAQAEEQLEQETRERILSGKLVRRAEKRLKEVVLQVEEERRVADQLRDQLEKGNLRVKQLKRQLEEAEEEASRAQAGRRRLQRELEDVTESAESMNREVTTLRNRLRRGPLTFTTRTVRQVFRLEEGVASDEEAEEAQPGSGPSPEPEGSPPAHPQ
UniProt P35579: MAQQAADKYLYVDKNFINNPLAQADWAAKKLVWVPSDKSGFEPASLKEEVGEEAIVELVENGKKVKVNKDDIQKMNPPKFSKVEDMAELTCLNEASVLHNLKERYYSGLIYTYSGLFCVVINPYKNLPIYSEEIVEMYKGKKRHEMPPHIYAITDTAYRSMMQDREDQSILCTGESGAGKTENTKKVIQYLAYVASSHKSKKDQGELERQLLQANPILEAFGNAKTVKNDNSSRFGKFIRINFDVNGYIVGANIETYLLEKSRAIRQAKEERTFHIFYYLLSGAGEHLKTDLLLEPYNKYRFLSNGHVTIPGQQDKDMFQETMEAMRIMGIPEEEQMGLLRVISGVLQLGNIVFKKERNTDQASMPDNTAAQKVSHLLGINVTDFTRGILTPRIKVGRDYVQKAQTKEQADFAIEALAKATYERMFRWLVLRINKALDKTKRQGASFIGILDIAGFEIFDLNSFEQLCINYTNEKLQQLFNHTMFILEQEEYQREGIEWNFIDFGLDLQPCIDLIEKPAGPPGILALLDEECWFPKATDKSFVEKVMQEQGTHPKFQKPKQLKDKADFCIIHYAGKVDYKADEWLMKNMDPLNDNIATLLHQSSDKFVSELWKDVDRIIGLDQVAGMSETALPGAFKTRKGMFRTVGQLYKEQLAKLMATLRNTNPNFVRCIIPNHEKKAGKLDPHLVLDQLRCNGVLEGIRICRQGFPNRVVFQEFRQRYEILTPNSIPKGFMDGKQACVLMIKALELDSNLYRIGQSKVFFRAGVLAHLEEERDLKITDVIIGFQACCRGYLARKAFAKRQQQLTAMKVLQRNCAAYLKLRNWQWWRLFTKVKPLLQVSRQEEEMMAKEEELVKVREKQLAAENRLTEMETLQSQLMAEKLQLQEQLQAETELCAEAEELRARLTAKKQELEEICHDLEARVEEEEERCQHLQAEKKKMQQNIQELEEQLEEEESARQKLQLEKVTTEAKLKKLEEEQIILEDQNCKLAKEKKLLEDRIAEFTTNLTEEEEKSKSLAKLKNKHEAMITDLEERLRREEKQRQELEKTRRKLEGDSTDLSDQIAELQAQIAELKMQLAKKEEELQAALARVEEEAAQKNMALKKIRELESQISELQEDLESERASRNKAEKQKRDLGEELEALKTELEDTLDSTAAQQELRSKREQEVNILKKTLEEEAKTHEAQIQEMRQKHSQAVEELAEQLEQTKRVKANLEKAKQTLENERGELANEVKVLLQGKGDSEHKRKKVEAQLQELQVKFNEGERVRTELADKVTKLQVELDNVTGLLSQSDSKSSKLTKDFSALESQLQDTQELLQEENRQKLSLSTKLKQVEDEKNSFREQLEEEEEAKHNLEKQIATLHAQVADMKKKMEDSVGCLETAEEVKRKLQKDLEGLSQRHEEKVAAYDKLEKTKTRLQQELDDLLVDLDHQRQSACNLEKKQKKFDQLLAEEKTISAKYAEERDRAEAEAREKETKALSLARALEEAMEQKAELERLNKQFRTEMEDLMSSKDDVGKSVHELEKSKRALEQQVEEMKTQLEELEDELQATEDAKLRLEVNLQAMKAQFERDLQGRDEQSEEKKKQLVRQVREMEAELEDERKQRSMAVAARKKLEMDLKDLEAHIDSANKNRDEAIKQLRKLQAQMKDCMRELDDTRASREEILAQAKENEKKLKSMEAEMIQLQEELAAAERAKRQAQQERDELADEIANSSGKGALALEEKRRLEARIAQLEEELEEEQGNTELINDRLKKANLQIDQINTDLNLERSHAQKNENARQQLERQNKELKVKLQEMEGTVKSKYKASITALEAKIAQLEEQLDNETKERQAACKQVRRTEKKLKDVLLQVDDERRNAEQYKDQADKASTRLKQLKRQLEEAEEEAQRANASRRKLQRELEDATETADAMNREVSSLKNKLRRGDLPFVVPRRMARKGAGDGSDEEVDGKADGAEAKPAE

No constants are given. Whether binding was seen depends on the method and setting. In cells and extracts the contact can be indirect. These calls come from enrichment with a bait or labelling near it, and not all partners need be listed.

The target in this assay is MYH14 (human (endogenous in Ishikawa and KLE)) (UniProt Q7Z406). Kind of assay: affinity purification with mass spectrometry; Pierce Co-IP kit, antibody covalently coupled to amine-reactive resin; 5 mg protein of EC cell lysate, overnight at 4 °C; eluate analysed by silver staining and mass spectrometry.

For MYH9 (from UniProt P35579 1-1960), the binding result was “binds”.
